Assay [1] has as its target Beclin1 (human (endogenous in HUVECs)) (UniProt Q14457). Kind of assay: co-IP; lysates of HUVECs exposed to 1.25 mM METH for 24 h; immunoprecipitated with Beclin1 antibody or normal IgG, protein A/G-agarose beads at 4 °C for 12 h; blotted with Bcl-2 antibody.
Assay [2] addresses Bcl-2 (rat (endogenous in CMECs)) (UniProt P49950). The assay is described as follows: co-IP; lysates of rat CMECs exposed to 0.5 mM METH for 24 h; immunoprecipitated with Bcl-2 antibody or normal IgG; blotted with Beclin1 antibody.

The chains behind the UniProt entries cited, without tags or fusion partners.
UniProt Q14457: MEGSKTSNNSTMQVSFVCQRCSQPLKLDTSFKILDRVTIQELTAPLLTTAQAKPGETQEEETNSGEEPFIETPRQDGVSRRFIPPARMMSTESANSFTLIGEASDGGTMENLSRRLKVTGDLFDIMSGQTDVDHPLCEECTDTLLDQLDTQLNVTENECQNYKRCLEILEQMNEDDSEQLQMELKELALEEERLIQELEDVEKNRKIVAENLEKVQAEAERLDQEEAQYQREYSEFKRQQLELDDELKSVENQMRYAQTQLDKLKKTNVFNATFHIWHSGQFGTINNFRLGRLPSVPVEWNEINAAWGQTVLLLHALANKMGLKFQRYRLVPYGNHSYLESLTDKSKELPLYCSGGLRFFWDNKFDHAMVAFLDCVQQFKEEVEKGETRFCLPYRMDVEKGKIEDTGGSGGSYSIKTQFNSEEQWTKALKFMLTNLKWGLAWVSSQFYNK
UniProt P49950: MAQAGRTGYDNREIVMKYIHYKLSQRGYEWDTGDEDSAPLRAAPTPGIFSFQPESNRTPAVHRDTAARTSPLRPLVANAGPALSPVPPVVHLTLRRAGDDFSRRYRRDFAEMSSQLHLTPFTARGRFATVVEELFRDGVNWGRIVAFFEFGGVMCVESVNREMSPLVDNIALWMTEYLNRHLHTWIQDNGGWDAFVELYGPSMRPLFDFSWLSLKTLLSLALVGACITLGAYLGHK
UniProt P10415: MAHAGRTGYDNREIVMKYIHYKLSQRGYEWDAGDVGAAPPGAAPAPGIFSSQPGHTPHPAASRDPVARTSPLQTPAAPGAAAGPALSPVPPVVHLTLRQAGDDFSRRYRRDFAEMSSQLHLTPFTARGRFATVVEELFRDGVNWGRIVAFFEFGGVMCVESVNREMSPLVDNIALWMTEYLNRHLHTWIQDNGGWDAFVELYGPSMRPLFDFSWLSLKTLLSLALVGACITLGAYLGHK
UniProt Q91XJ1: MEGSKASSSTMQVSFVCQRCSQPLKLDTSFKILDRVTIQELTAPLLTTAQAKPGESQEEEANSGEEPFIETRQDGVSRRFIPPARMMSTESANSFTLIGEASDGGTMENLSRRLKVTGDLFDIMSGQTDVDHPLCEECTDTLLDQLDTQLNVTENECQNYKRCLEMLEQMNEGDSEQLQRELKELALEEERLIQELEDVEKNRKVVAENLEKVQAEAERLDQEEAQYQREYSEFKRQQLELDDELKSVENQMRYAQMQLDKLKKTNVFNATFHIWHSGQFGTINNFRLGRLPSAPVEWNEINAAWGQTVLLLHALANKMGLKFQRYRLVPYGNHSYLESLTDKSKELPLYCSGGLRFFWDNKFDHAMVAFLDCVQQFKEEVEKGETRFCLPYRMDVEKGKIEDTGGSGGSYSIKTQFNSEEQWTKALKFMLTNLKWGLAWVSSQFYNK

No constants are given. Whether binding was seen depends on the method and setting. In cells and extracts the contact can be indirect. Some binding calls cover weakened binding; strength is not graded here.

For Bcl-2 (from UniProt P10415 1-239), the binding result in assay [1] is given as “binds”.
Turning to Beclin1 (from UniProt Q91XJ1 1-448), the binding entry in assay [2] is listed as “binds”.

The record behind these values is article PMC4823965.
